Reference: patent publication US10736883B2, “Triazole furan compounds as agonists of the APJ receptor” (AMGEN INC., priority 2016, dated 2020)
For at least one compound, name, drawing or mass did not settle the structure.

Test system: ex vivo naive Sprague Dawley rat hearts
Assay: Langendorff isolated perfused rat heart (ex vivo)
Details: Langendorff apparatus, compared with vehicle / control (DMSO)
Source text: FIG. 1A is a graph of left ventricular dP/dtmax as a function of concentration of Example 210.0 compared with vehicle in ex vivo naive Sprague Dawley rat hearts obtained using the Langendorff apparatus.
FIG. 1B is a graph of left ventricular dP/dtmin as a function of concentration of Example 210.0 compared with vehicle in ex vivo naive Sprague Dawley rat hearts obtained using the Langendorff apparatus.
FIG. 2A is a graph of left ventricular dP/dtmax as a function of concentration of Example 51.0 compared with vehicle in ex vivo naive Sprague Dawley rat hearts obtained using the Langendorff apparatus.
FIG. 2B is a graph of left ventricular dP/dtmin as a function of concentration of Example 51.0 compared with vehicle in ex vivo naive Sprague Dawley rat hearts obtained using the Langendorff apparatus.

## COc1cccc(OC)c1-n1c(NS(=O)(=O)[C@@H](C)Cc2ncc(F)cn2)nnc1-c1ccco1 (single isomer, unassigned) [Example 51.0, (2S)—N-(4-(2,6-Dimethoxyphenyl)-5-(2-furanyl)-4H-1,2,4-triazol-3-yl)-1-(5-fluoro-2-pyrimidinyl)-2-propanesulfonamide or (2R)—N-(4-(2,6-dimethoxyphenyl)-5-(2-furanyl)-4H-1,2,4-triazol-3-yl)-1-(5-fluoro-2-pyrimidinyl)-2-propanesulfonamide]
  left ventricular dP/dtmax (cardiac contractility): increases load independent cardiac contractility
  left ventricular dP/dtmin (cardiac relaxation): increases load independent cardiac relaxation
